Values from PubChem BioAssay AID504793 (Drosophila RNAi Screening Center, 2011)
The screen tested about 23,000 reagents; shown is a random part of those that have a named target and a result. Over the whole deposit, 62 (0.27%) got an active call. 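Calls come from follow-up tests whose scores are not deposited, so confirmed genes may have low counts here; counts are not normalised per plate.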 Raw values are not corrected between plates. The numbers tell different reagents against one gene apart. A plus sign joins genes that one reagent is predicted to hit.

Test: 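Knock-downs allowing continued mitosis even though DNA is damaged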 (primary screen)
System: Drosophila S2R+ cells
Knock-down reagent: long dsRNA against Drosophila genes, about 0.25 µg dsRNA per well
Time to read-out: 4 days of dsRNA, then 4 hours of drug before read-out
Treatment: doxorubicin 0.5 µM for 4 hours to cause double-strand breaks, in cells also given a low, harmless dose of dsRNA against nbs to sensitise the assay
Read-out: 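Mitotic index as the number of phospho-histone H3-positive cells in each well following doxorubicin, given as raw counts without normalisation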
Direction: mitotic cells: higher = more cells in mitosis, weaker G2 arrest
Hit rule: 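Genes are called active only when high mitotic counts were reproduced with independent dsRNAs and mitosis was checked for delay without damage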
Meaning of the calls: active = confirmed in follow-up tests; inactive = not confirmed

| gene | dsRNA no. | mitotic cells, replicate 1 | mitotic cells, replicate 2 | call |
| --- | --- | --- | --- | --- |
| mnb | 1 | 20 | – | inactive |
| mnb | 2 | 12 | – | inactive |
| mnb | 3 | 8 | – | inactive |
| mnb | 4 | 16 | – | inactive |
| Nup188 | 1 | 19 | – | inactive |
| Nup188 | 2 | 10 | – | inactive |
| CG13634 | 1 | 13 | – | inactive |
| CG33992 (retired record) + CG43755 | 1 | 8 | – | inactive |
| CG6878 | 1 | 9 | – | inactive |
| galla-2 | 1 | 17 | – | inactive |
| galla-2 | 2 | 7 | – | inactive |
| CG5068 | 1 | 8 | – | inactive |
| CG32576 | 1 | 7 | – | inactive |
| CG13192 | 1 | 8 | – | inactive |
| Cdk5alpha | 1 | 8 | – | inactive |
| Cdk5alpha | 2 | 6 | – | inactive |
| CG5103 | 1 | 4 | – | inactive |
| Cth | 1 | 5 | – | inactive |
| nkt | 1 | 4 | – | inactive |
| dco | 1 | 6 | – | inactive |
| dco | 2 | 3 | – | inactive |
| CG7841 | 1 | 11 | – | inactive |
| CG8135 + BBIP1 | 1 | 6 | – | inactive |
| CG8135 + BBIP1 | 2 | 4 | – | inactive |
| CG8135 + BBIP1 | 3 | 2 | – | inactive |
| CG5112 | 1 | 6 | – | inactive |
| CG18418 | 1 | 4 | – | inactive |
| CG18418 | 2 | 4 | – | inactive |
| fax | 1 | 16 | – | inactive |
| fax | 2 | 6 | – | inactive |
| Shark | 1 | 3 | – | inactive |
| Shark | 2 | 2 | – | inactive |
| para | 1 | 12 | – | inactive |
| CG14383 | 1 | 4 | – | inactive |
| CG7387 | 1 | 9 | – | inactive |
| Rcd-1r + CG13102 | 1 | 4 | – | inactive |
| myo | 1 | 8 | – | inactive |
| Sse | 1 | 15 | – | inactive |
| Ephrin | 1 | 11 | – | inactive |
| twf | 1 | 11 | – | inactive |
| Cpr72Ec | 1 | 9 | – | inactive |
| CG7133 | 1 | 6 | – | inactive |
| Cpr66Cb | 1 | 2 | – | inactive |
| CG15082 | 1 | 9 | – | inactive |
| CG15082 | 2 | 6 | – | inactive |
| TpnC25D | 1 | 6 | – | inactive |
| TpnC25D | 2 | 5 | – | inactive |
| Uhg2 + snoRNA:Me18S-G1620 + snoRNA:U14:30Ea | 1 | 5 | – | inactive |
| CG33230 | 1 | 2 | – | inactive |
| Wnt6 | 1 | 3 | – | inactive |
| Wnt6 | 2 | 6 | – | inactive |
| mRpL4 | 1 | 8 | – | inactive |
| CG13733 | 1 | 6 | – | inactive |
| bigmax | 1 | 7 | – | inactive |
| bigmax | 2 | 10 | – | inactive |
| PMCA | 1 | 12 | – | inactive |
| PMCA | 2 | 2 | – | inactive |
| lds | 1 | 2 | – | inactive |
| CG11313 | 1 | 10 | – | inactive |
| Pcyt1 | 1 | 10 | – | inactive |
| Pcyt1 | 2 | 4 | – | inactive |
| CG14183 | 1 | 1 | – | inactive |
| Alp13 | 1 | 4 | – | inactive |
| cnc | 1 | 10 | – | inactive |
| cnc | 2 | 7 | – | inactive |
| cnc | 3 | 10 | – | inactive |
| cnc | 4 | 9 | – | inactive |
| MESR3 | 1 | 3 | – | inactive |

Next part (13 carried over from the part before).
| gene | dsRNA no. | mitotic cells, replicate 1 | mitotic cells, replicate 2 | call |
| --- | --- | --- | --- | --- |
| PMCA | 1 | 12 | – | inactive |
| PMCA | 2 | 2 | – | inactive |
| lds | 1 | 2 | – | inactive |
| CG11313 | 1 | 10 | – | inactive |
| Pcyt1 | 1 | 10 | – | inactive |
| Pcyt1 | 2 | 4 | – | inactive |
| CG14183 | 1 | 1 | – | inactive |
| Alp13 | 1 | 4 | – | inactive |
| cnc | 1 | 10 | – | inactive |
| cnc | 2 | 7 | – | inactive |
| cnc | 3 | 10 | – | inactive |
| cnc | 4 | 9 | – | inactive |
| MESR3 | 1 | 3 | – | inactive |
| CG13436 | 1 | 11 | – | inactive |
| Smr | 1 | 22 | – | inactive |
| Smr | 2 | 15 | – | inactive |
| Ino80 | 1 | 8 | – | inactive |
| Ino80 | 2 | 5 | – | inactive |
| Ino80 | 3 | 4 | – | inactive |
| Eps-15 | 1 | 8 | – | inactive |
| Idh3a | 1 | 4 | – | inactive |
| Idh3a | 2 | 11 | – | inactive |
| DIP-eta | 1 | 9 | – | inactive |
| CG2812 | 1 | 6 | – | inactive |
| CG2812 | 2 | 3 | – | inactive |
| Lsp2 | 1 | 6 | – | inactive |
| Lsp2 | 2 | 4 | – | inactive |
| Lsp2 | 3 | 5 | – | inactive |
| IM33 | 1 | 1 | – | inactive |
| IM33 | 2 | 4 | – | inactive |
| spab | 1 | 9 | – | inactive |
| CG6766 | 1 | 6 | 9 | inactive |
| CG4607 | 1 | 4 | – | inactive |
| Pos | 1 | 9 | – | inactive |
| CG12061 | 1 | 4 | – | inactive |
| CG17768 + LSm-4 | 1 | 7 | – | inactive |
| CG8708 | 1 | 8 | – | inactive |
| CG8708 | 2 | 1 | – | inactive |
| Ect3 | 1 | 2 | – | inactive |
| Ect3 | 2 | 5 | – | inactive |
| Max | 1 | 4 | – | inactive |
| CG12861 | 1 | 7 | – | inactive |
| CG12861 | 2 | 8 | – | inactive |
| CG12861 | 3 | 4 | – | inactive |
| smash | 1 | 4 | – | inactive |
| smash | 2 | 11 | – | inactive |
| DEF8 | 1 | 3 | – | inactive |
| CG31051 | 1 | 11 | – | inactive |
| CG6656 | 1 | 4 | – | inactive |
| Zip88E | 1 | 1 | – | inactive |
| Zip88E | 2 | 6 | – | inactive |
| B9d1 | 1 | 9 | – | inactive |
| mrn | 1 | 7 | – | inactive |
| CG6481 | 1 | 16 | – | inactive |
| CG32432 | 1 | 3 | – | inactive |
| hwt | 1 | 6 | – | inactive |
| hwt | 2 | 3 | – | inactive |
| hwt | 3 | 2 | – | inactive |
| CG14518 | 1 | 13 | – | inactive |
| CG14518 | 2 | 6 | – | inactive |
| REPTOR | 1 | 4 | – | inactive |
| REPTOR | 2 | 2 | – | inactive |
| CG16787 | 1 | 5 | – | inactive |
| CG8191 | 1 | 22 | – | inactive |
| Mgat3 | 1 | 6 | – | inactive |
| Mgat3 | 2 | 2 | – | inactive |
| fus | 1 | 6 | – | inactive |
| fus | 2 | 8 | – | inactive |
| CG4582 | 1 | 13 | – | inactive |
| Rpn7 | 1 | 55 | – | inactive |
| Rpn7 | 2 | 28 | – | inactive |
| RpLP2 | 1 | 2 | – | inactive |
| RpLP2 | 2 | 3 | – | inactive |
| euc | 1 | 9 | – | inactive |
| CG3611 | 1 | 8 | – | inactive |
| MED27 | 1 | 11 | – | inactive |
| tmod | 1 | 17 | – | inactive |
| tmod | 2 | 7 | – | inactive |
| tmod | 3 | 3 | – | inactive |
| tmod | 4 | 8 | – | inactive |
| CG18682 (retired record) | 1 | 8 | – | inactive |
| CG18682 (retired record) | 2 | 9 | 13 | inactive |
| CG17826 | 1 | 4 | – | inactive |
| CG17826 | 2 | 3 | – | inactive |
| msl-1 | 1 | 9 | – | inactive |
